No constants are given. Whether binding was seen depends on the method and setting. In cells and extracts the contact can be indirect. Some binding calls cover weakened binding; strength is not graded here.
Tests used:
[1] = molecular target: FLAG-tagged BCL11A (UniProt Q9H165); experiment: co-IP; HEK293T cells transfected with plasmids, lysed in NETN buffer (50 mM Tris-HCl pH 7.5, 150 mM NaCl, 5 mM EDTA, 0.1% NP-40); anti-FLAG M2 affinity gel overnight at 4 °C; immunoblot
[2] = molecular target: FLAG-tagged ZBTB7A (UniProt O95365); experiment: as above
[3] = molecular target: Biotinylated histone H3K9me2 peptide; experiment: pull-down; 3 μg biotinylated histone peptide on streptavidin sepharose beads, NETN buffer with 0.5% BSA; HUDEP-2 cell lysate added, overnight at 4 °C; immunoblot; only the target purified

Protein sequences, listed by entry. Tags and fused reporters are not part of them.
UniProt Q9H165: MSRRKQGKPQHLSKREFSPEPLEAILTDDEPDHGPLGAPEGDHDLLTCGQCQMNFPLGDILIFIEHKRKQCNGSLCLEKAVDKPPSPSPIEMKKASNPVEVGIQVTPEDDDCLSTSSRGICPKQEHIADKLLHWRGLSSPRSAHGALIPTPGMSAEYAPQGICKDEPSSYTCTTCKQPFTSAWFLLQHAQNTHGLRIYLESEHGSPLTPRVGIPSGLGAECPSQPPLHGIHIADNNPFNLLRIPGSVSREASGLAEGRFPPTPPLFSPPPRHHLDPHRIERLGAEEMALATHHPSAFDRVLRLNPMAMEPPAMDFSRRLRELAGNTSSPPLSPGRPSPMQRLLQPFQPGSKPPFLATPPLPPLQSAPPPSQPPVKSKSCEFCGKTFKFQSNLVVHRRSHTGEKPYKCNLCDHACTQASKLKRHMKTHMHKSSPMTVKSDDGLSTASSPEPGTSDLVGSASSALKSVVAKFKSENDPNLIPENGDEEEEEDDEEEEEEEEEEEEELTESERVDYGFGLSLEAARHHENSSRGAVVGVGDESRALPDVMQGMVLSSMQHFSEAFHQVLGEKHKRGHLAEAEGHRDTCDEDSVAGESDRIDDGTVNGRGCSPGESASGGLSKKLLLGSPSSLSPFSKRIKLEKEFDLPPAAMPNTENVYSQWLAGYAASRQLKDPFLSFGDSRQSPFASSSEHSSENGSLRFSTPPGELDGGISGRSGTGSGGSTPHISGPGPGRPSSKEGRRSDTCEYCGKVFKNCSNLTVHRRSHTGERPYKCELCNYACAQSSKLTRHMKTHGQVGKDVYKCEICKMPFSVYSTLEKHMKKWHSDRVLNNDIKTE
UniProt O95365: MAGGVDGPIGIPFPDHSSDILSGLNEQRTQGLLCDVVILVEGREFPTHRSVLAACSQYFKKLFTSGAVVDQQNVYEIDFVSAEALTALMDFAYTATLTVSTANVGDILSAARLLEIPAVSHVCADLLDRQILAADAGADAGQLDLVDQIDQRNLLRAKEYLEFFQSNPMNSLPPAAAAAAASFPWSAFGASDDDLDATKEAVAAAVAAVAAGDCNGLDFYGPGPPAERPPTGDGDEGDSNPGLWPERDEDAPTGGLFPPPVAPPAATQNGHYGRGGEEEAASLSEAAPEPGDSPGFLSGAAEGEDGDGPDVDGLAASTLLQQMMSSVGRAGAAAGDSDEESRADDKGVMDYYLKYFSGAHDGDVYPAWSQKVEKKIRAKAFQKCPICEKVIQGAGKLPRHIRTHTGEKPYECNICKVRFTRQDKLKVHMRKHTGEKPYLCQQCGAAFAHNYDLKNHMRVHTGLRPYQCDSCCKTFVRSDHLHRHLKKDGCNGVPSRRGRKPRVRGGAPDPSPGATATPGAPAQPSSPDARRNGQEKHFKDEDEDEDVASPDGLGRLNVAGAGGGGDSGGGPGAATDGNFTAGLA
UniProt Q14839: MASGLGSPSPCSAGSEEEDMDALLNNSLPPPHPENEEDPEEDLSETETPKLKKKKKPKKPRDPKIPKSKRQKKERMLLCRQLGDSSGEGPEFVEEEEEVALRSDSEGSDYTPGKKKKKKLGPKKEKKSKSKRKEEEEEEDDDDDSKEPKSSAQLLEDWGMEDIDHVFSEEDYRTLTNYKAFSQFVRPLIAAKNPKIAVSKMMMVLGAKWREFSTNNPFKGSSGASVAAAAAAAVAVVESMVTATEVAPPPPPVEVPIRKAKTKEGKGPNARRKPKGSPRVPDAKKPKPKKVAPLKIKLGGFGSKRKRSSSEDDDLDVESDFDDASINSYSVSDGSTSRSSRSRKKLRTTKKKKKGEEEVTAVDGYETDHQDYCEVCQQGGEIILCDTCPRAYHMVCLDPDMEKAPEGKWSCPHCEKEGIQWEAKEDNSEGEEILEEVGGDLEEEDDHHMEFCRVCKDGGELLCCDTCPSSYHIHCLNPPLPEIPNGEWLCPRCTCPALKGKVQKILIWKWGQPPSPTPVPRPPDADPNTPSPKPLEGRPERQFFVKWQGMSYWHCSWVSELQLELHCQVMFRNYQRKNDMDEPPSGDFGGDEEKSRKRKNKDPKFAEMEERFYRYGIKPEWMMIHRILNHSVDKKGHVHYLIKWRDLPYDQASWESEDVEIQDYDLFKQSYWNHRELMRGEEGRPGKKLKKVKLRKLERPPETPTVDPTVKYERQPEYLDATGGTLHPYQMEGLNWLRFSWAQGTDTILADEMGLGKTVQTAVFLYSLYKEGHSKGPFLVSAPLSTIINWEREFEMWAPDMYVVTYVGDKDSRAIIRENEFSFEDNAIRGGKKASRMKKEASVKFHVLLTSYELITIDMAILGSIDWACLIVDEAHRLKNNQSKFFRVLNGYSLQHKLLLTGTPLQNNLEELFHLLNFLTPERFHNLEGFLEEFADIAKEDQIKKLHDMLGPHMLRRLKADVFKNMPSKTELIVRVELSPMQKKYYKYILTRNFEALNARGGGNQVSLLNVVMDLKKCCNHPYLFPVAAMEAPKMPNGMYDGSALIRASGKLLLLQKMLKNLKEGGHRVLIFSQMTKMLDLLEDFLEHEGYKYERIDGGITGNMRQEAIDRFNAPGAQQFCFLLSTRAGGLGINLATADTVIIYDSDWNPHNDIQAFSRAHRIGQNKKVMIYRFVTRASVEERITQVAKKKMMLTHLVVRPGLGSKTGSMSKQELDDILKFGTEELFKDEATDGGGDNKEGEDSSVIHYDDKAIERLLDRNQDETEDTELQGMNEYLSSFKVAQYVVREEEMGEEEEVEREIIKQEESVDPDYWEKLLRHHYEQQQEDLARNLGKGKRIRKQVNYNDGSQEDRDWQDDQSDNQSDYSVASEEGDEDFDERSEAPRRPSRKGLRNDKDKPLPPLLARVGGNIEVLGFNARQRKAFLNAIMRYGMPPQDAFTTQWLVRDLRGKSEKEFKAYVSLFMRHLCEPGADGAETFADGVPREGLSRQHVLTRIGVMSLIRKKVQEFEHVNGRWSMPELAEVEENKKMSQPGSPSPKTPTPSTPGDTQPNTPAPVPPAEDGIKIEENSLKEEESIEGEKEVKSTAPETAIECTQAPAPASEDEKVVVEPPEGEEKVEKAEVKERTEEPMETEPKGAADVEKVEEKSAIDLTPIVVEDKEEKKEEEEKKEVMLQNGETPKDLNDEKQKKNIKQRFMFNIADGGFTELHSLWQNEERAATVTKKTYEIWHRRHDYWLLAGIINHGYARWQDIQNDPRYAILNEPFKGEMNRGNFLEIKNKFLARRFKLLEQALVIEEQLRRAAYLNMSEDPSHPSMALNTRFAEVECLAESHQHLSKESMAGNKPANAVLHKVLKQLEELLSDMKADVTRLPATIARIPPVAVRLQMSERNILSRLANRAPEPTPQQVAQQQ
UniProt Q96KQ7: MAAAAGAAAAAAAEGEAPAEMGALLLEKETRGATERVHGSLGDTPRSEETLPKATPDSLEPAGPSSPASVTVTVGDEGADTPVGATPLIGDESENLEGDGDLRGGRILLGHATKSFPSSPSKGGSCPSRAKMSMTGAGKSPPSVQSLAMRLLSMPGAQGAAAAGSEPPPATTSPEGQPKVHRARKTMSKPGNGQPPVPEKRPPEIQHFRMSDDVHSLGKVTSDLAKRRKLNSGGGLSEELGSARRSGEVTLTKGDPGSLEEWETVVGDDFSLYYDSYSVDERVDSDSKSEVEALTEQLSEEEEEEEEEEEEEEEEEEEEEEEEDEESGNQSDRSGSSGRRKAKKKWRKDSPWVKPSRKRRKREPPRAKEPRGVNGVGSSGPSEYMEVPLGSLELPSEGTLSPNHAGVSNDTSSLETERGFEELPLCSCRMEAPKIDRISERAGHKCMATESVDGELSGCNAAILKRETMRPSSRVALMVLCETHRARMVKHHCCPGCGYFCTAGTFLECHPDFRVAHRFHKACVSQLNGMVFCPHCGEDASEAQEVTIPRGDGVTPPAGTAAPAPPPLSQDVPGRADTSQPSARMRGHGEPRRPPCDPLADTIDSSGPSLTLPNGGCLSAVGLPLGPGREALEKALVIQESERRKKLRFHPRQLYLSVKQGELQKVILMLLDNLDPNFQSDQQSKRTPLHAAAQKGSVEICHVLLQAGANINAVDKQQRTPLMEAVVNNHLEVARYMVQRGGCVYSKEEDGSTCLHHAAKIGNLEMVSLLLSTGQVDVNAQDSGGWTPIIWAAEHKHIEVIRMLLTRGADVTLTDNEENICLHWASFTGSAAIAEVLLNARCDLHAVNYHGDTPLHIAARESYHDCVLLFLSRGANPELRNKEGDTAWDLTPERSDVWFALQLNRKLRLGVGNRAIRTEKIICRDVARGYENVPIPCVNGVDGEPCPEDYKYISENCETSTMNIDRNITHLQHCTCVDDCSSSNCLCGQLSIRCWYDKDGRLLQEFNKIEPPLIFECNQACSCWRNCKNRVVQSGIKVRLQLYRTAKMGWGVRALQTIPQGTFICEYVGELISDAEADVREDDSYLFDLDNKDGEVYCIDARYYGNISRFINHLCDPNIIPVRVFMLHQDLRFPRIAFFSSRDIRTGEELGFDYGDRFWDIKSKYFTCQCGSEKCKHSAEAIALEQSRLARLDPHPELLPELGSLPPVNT

Substance	binding [1]	binding [2]	binding [3]
His-tagged CHD4 (from UniProt Q14839 1-1912)	binds	binds	–
G9a (from UniProt Q96KQ7 1-1210) (enzyme)	binds	binds	–
CHD4 (endogenous, HUDEP-2) (from UniProt Q14839 1-1912)	–	–	binds
ZBTB7A (endogenous, HUDEP-2) (from UniProt O95365 1-584)	–	–	binds
BCL11A (endogenous, HUDEP-2) (from UniProt Q9H165 1-835)	–	–	binds

From PMC9837035
